Key:
[1] = Hair deposition evaluation (ninhydrin, spectroscopic measurement); design: species or system human; settings: hair soaked one hour in solution, rinsed with distilled water; average of hair from 10 individuals (five male, five female)
Description: Human hair (about 10 cm long) was obtained from 10 individuals (five male and five female) from the barbershops. It was washed with water and air dried. Portions of these hair samples were soaked for one hour in (1) distilled water, (2) in a solution obtained from Example 1, and (3) in a solution obtained from Example 2.
These hair swatches were then removed and rinsed with distilled water. These hair swatches were then immersed in a 1% solution of sodium hydroxide. The hair swatches were then removed, and the sodium hydroxide solution was first heated at 70 to 80 C. for 1 hour to deacetylate N-acetyl-cysteine, then neutralized with hydrochloric acid to pH 5.5 and reacted with ninhydrin reagent solution. The blue color was obtained in samples from (2) and (3) above. […] The deposition of N-acetyl-cysteine from sample (3) was at least 10%.

[2] = Hair conditioning / antioxidant benefit of ion-pair derivatives; settings: ion-pair formed from stearalkonium chloride
Description: Most hair and nail beneficial sulfur compounds mentioned above, such as cysteine, cystine, N-acetyl-cysteine, biotin, glutathione, and such, are water soluble. These ingredients are not easily deposited in any appreciable or beneficial amounts from rinse-off compositions such as shampoo or conditioner. The combination of such water soluble ingredients with another hair or nail beneficial composition that is known to be deposited on hair and nails (by the attractive forces of cationic and anionic electrical charges) in significant amounts from aforementioned rinse-off products has provided a new method for the deposition of such water soluble ingredients in the present invention. This is both surprising and unexpected because such combination of cationic and anionic compositions usually renders both of such combining compositions ineffective due to the self-neutralization of their positive and negative charges.

Row | Molecule | N-acetyl-cysteine deposited on hair [1] | hair conditioning benefit [2]
1 | CC(=O)NC(CS)C(=O)[O-].C[N+](C)(C)CCCNC(=O)C=Cc1ccccc1 [sample (3), Cinnamidopropyltrimonium N-Acetyl-Cysteinate] | at least 10% | –
2 | CC(=O)N[C@@H](CS)C(=O)[O-].[Na+] [sample (2), Sodium N-Acetyl-Cysteinate] | about 1% | –
3 | stearalkonium cocoate | – | does not have any hair conditioning benefits at all

— US20040241114A1, “Hair Care and Nail Care Compositions Based on Ion-Pair Delivery System for Gender and Ethnic Selective Applications” (priority 2003, published 2004)
